Assay [1] addresses PRO40 (yeast two-hybrid, full length) (Sordaria macrospora) (UniProt F7VLP8). Kind of assay: two-hybrid; reciprocal matrix of GAL4-AD and -BD fusions in diploid yeast, drop-plated on SD lacking leucine, tryptophan, histidine and adenine.
Assay [2] has as its target MEK1 (yeast two-hybrid matrix) (Sordaria macrospora) (UniProt F7W2W0). The description is as above.

The chains behind the UniProt entries cited, without tags or fusion partners. Where a name states a change or a piece, a line headed by the entry shows the natural chain unless it says otherwise.
UniProt F7VLP8: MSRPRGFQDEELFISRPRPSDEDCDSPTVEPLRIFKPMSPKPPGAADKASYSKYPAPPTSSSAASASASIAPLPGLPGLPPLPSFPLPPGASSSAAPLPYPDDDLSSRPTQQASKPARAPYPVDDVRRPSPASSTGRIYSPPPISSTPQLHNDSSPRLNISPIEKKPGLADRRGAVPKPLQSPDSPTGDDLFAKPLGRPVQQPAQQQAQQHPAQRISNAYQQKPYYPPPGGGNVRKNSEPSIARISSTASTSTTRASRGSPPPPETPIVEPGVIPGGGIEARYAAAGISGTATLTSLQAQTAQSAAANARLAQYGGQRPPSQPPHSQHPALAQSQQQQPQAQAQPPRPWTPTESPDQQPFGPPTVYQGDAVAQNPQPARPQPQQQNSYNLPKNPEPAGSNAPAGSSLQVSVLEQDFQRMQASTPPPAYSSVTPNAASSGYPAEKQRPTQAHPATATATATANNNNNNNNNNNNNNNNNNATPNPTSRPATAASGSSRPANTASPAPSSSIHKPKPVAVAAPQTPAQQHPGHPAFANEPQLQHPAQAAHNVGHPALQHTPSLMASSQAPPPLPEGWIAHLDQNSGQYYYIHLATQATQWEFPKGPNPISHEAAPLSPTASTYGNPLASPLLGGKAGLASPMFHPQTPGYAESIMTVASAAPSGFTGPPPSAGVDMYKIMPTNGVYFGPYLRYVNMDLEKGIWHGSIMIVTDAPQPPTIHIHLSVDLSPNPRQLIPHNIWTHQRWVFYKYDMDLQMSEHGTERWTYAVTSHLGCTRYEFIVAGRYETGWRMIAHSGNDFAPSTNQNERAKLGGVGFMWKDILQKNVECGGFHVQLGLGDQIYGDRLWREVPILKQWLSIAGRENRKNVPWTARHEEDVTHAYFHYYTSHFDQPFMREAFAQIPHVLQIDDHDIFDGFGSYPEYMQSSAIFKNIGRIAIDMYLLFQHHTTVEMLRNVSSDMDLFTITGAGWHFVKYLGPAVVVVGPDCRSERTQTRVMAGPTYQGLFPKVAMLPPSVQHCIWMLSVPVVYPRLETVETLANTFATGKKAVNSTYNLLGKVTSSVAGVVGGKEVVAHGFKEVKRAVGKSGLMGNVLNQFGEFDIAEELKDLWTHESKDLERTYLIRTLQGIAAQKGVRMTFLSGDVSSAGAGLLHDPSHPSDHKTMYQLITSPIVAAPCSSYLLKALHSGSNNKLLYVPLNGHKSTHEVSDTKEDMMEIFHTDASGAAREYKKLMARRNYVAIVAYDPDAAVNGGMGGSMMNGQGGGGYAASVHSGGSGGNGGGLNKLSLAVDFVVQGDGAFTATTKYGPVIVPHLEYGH
UniProt F7VVV0: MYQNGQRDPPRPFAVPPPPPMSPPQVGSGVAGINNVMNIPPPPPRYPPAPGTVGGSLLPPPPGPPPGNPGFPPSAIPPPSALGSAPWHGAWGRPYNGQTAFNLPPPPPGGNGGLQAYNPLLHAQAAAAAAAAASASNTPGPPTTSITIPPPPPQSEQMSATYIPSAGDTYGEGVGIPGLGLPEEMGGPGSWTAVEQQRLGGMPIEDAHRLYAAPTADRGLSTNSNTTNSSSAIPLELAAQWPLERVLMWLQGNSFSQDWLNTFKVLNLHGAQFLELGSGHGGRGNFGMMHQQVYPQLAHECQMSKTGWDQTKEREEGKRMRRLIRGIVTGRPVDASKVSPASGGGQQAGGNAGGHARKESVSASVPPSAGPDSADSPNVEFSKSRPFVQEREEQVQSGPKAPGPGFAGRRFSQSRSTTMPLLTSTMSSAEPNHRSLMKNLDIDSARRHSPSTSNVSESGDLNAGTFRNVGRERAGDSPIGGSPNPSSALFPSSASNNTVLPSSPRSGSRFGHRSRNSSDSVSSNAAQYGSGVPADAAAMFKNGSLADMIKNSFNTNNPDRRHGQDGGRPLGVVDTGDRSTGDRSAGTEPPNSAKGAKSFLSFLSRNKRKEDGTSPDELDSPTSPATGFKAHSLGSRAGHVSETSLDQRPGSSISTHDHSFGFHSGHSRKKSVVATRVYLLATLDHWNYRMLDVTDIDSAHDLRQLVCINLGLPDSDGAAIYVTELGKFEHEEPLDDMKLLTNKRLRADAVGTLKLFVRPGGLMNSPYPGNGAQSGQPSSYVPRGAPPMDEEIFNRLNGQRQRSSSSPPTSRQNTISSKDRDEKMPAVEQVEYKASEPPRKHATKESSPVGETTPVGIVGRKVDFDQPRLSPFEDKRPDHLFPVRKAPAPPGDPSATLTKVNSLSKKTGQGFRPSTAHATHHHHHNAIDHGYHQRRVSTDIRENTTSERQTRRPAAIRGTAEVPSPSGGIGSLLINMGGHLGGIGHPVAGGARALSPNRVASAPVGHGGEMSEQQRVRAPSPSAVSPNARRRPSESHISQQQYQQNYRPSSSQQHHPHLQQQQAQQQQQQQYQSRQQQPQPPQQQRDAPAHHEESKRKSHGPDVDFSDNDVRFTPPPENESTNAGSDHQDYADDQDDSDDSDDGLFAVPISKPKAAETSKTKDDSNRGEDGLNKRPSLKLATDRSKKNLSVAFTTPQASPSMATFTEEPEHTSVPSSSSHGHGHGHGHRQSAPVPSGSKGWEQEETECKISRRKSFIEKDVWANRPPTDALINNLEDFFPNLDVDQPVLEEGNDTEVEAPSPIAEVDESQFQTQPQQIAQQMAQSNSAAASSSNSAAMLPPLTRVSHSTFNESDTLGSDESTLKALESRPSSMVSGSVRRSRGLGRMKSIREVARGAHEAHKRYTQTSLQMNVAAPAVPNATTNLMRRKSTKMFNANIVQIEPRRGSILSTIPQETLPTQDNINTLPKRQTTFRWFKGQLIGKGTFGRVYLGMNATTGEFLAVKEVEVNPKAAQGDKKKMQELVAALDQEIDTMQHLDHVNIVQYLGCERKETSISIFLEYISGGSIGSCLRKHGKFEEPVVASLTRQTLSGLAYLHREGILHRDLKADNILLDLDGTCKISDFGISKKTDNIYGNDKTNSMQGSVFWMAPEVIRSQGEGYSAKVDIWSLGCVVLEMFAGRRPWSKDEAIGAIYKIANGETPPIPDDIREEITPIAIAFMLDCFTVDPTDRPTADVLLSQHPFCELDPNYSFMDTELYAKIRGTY

No constants are given. Whether binding was seen depends on the method and setting. A result given as binding can be weak or reduced; the word gives no strength.

In the case of “MEK1 (yeast two-hybrid matrix) (from UniProt F7W2W0) (enzyme)”, the binding result in assay [1] is reported as “binds”.

As for “MIK1 (yeast two-hybrid, full length) (from UniProt F7VVV0 1-1764) (enzyme)”, the binding entry in assay [1] and in assay [2] was “binds” each time.

B1: PKC1 (yeast two-hybrid, full length) (enzyme, UniProt F7W233 1-1146)
chain: MNDEDKVHDISKKIEREKALINAAQAMRQQTNNEQVRSKLDTQMREGRRNLEFFEEKLRELQMRRLGHGVDNMSLGASPMSGSHRQSVDDFEGHGAPTPPPKEGGRGHSSHQSQGSGPLMPASGPYPGGPPDSAVPRARPNYTRLDLIKFDTPHLGPRIQLMLSQIQFKLNVEEQYLKGIEKMVQLYQMEGDKKSKLDAAAKRVESKQKIVLLKQALKRYEELHIDIDVDGPDDDSINLPALRKPLSGTLSIRILAVKDVDHAPLGRFARSPETFIAVKAEDIIVARTRPSRNDRWEAEFHTFPVDKTNEIEFTVYDKPSEHPVPIAMLWVRISDIVEELRRKKIEAEMTSAGWVSADRVGSRAPPPQFPMGTQSPQFAAPPTSPGSQEQNIMIPPQAPPPSQVVSQPVDGWFNLEPYGQIHLSFNFMKESRPQGMDRLGRKGAVRQRKEEVHEMYGHKFVQKQFYNIMRCALCGDFLKYSAGMQCEDCKYTCHTKCYTSVVTKCISKSNAETDPDEEKINHRIPHRFIPFSNLTANWCCHCGYMLPIGSKKNSRKCSECALTAHAQCVHLVPDFCGMSMAVANQILEGIRTQKKTHKDKASSMSERTLRPGSKTSFSSGSIAQTSTYSGSTAYTSIASPEATEAAKLMYSQTTPRPAGPDRTSTSSTTASAAAAAAMAPKHSSQPSQAGSIPDFGGNYGGSGSYGHPESREDEYNAQQQQGYGSPQQRKYNPADYANIGAYSSPPQAQHPQQQQQQQSPQQVSPMYQQNPQTPISKPQPVAPSYDNQVVPSASGVPVPTKKPLPSATDPGTGMRIGLDHFNFLAVLGKGNFGKVMLAETKKSRKLYAIKVLKKEFIIENDEVESIRSEKRVFLIANRERHPFLTNLHACFQTETRVYFVMEYISGGDLMLHIQRGMFGTKRAQFYAAEVCLALKYFHENGVIYRDLKLDNILLTLDGHIKIADYGLCKEDMWYGSTTSTFCGTPEFMAPEILLDKKYGRAVDWWAFGVLIYQMLLQQSPFRGEDEDEIYDAILADEPLYPIHMPRDSVSILQKLLTREPDQRLGSGPTDAQEIMSQPFFRNINWDDIYHKRVQPPFLPQIKSATDTSNFDSEFTSVTPVLTPVQSVLSQAMQEEFRGFSYTADFE
As to B1, the values for the binding result in assay [1] and in assay [2] were “binds” and “no binding”, respectively.

The values are drawn from publication PMC4154660.
